From paper PMC10786908
These are yes or no findings as the source states them, for the method shown. In cells and extracts the contact can be indirect. Some binding calls cover weakened binding; strength is not graded here.

The chains behind the UniProt entries cited, without tags or fusion partners. Residues count along the entry.
UniProt O14763, residues 56-440: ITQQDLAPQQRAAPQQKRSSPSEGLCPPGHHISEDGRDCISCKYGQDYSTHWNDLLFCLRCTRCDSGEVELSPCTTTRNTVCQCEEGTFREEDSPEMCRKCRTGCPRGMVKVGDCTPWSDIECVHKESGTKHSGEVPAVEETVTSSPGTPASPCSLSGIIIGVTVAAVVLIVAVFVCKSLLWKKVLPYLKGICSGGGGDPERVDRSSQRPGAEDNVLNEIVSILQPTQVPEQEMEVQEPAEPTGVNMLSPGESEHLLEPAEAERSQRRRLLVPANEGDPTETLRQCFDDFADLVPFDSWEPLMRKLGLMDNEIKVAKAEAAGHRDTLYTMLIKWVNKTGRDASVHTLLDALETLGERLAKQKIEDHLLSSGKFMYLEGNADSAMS
UniProt Q13158: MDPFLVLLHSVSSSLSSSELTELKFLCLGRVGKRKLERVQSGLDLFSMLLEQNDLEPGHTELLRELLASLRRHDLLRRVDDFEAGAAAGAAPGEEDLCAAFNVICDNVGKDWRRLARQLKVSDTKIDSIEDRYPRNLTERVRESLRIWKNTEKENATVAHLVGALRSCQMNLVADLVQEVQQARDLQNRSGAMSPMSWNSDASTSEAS

Biological target: TRAIL-R2 (human (endogenous in OE33, HT29, HCT116)) (UniProt O14763)
Experiment: co-IP; TRAIL-R2 DISC IP: activating TRAIL-R2 antibody AMG655 (Conatumumab) coupled to Dynabeads; cells treated for 1 h to induce the DISC; OE33 (control shRNA or stable Itch knockdown), HT29 and HCT116 (control or ITCH siRNA); Western blot

binding: binds
Substance: FADD (from UniProt Q13158 1-208)
